System: Candida albicans
Test: Antifungal activity against Candida albicans ATCC 10231 at 100 ug after 48 hrs
Format: functional, organism-based

## NYSTATIN
  inhibition zone (IZ): 23 mm

Source: ChEMBL document CHEMBL3400138, “Synthesis of 3-azabicyclo[3.2.2]nonanes and their antiprotozoal activities” (Bioorg Med Chem Lett, 2015)
